Reference: article PMC9652315
Results are given in words; binding and its absence hold for the method and conditions named. In cells and extracts the contact can be indirect. Some results given as binding are weak or reduced against the parent protein; the word gives no strength. Where a sequence is shown, tags or fusion partners need not be part of it. Blank lines part the entries; values can stand above or below the molecule they belong to.

The chains behind the UniProt entries cited, without tags or fusion partners. Residues count along the entry.
UniProt P63165, residues 1-97: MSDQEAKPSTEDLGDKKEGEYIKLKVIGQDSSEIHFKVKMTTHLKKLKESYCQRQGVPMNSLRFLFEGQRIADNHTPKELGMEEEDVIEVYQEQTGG
UniProt P61956: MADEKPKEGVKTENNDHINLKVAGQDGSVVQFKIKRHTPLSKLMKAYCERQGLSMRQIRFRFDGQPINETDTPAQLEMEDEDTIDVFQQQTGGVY
UniProt P60953: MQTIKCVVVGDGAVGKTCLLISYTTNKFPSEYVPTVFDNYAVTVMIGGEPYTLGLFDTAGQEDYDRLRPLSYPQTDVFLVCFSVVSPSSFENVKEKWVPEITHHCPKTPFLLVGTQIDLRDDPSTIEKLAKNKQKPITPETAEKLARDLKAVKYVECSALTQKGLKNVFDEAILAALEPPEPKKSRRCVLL

Columns and labels:
pTINCR-HA = target: T1, pTINCR-HA; experiment: co-IP; U2OS cells co-transfected with pTINCR-HA and CDC42-Flag plasmids; anti-HA immunoprecipitation; anti-HA and anti-Flag blots
T1 sequence: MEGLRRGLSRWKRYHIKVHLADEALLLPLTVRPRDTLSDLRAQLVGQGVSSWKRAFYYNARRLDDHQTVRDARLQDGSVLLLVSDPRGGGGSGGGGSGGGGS

GST-SUMO1 = GST-SUMO1 (UniProt P63165); experiment: pull-down; GST-SUMO1 or GST-SUMO2/3 bound onto glutathione-sepharose beads, incubated with protein extracts of U2OS cells (doxycycline 48 h) for 2 h at 4 °C; Western blot; only the target purified
GST-SUMO2/3 = GST-SUMO2/3 (UniProt P61956); experiment: as above

binding (pTINCR-HA): binds
Molecule: CDC42-Flag (from UniProt P60953 1-191)

binding (GST-SUMO1): binds
binding (GST-SUMO2/3): binds
B1: pTINCR-HA (protein, UniProt A0A2R8Y7D0 1-87)
chain: T1 sequence
